Experimental data as given in patent US20240101684A1 (AIMED BIO, published 2024).
Where a chain is given by its changes, count along the chain named. No constants are given. Whether binding was seen depends on the method and setting. Some binding calls cover weakened binding; strength is not graded here.

By UniProt entry, the sequences of proteins in these tests, tags left out. Residues count along the entry.
UniProt P22607, residues 23-806: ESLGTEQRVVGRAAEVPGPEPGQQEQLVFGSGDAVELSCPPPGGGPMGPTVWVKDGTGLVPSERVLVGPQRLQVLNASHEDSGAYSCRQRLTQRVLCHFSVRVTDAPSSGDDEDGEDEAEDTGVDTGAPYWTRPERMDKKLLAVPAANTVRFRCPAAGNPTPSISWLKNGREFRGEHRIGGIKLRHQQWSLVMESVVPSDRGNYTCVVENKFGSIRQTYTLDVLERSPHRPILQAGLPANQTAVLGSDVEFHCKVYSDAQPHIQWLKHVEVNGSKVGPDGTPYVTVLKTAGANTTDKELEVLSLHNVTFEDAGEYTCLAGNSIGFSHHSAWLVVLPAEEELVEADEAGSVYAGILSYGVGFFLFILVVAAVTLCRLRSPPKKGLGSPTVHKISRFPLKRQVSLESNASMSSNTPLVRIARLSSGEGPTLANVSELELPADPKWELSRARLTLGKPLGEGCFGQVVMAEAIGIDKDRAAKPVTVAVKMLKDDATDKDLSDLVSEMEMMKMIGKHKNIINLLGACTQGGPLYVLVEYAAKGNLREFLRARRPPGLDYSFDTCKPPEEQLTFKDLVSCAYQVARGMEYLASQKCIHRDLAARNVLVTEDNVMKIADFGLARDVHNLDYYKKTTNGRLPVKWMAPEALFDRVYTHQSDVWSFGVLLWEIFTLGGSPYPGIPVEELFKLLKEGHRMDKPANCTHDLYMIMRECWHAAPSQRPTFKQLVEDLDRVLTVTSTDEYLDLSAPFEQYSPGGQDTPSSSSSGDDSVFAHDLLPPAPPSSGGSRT

B1: FS312 (antibody, V domains shown)
VH: EVQLLESGGGLVQPGGSLRLSCAASGFTFSNYWMTWVRQAPGKGLEWVSWINTYSGNTNYNPSLKTRFTISRDNSKNTLYLQMNSLRAEDTAVYYCARGRGMFDYWGQGTLVTVSS
VL: QSVLTQPPSASGTPGQRVTISCSDNIGSKSVHWYQQLPGTAPKLLIYSNNQRPSGVSDRFSGSKSGTSASLAISGLRSEDEADYYCQSYDSSTVVFGGGTKLTVL
B2: FS316 (antibody, V domains shown)
VH: EVQLLESGGGLVQPGGSLRLSCAASGFTFSSYAMSWVRQAPGKGLEWVSGVSYSGNNKYYADSLQSRFTISRDNSKNTLYLQMNSLRAEDTAVYYCARNRNAIFDYWGQGTLVTVSS
VL: QSVLTQPPSASATPGQRVTISCSRNNIGSKSMHWYQQLPGTAPKLLIYDNNKRPSGVSDRFSGSKSGTSASLAISGLRSEDEADYYCSSYTSSSTLVFGGGTKLTVL
B3: FS307 (antibody, V domains shown)
VH: EVQLLESGGGLVQPGGSLRLSCAASGFTFSSYAISWVRQAPGKGLEWVSSIYYSGSTYYNPSLKSRFTISRDNSKNTLYLQMNSLRAEDTAVYYCAQGASWMDMWGQGTLVTVSS
VL: EIVLTQSPGTLSLSPGERATLSCQASQDISNYLNWYQQKPGQAPRLLIYDASNRATGIPDRFSGSGSGTDFTLTISRLEPEDFAVYYCQQSYSTPITFGQGTKVEIK
B4: FS303 (antibody, V domains shown)
VH: EVQLLESGGGLVQPGGSLRLSCAASGFTFSNYWIGWVRQAPGKGLEWVSIIHPGGSDSRYSPSFQGRFTISRDNSKNTLYLQMNSLRAEDTAVYYCARWRAWFDSWGQGTLVTVSS
VL: B3 VL with Q24R, D28S, S30T, N31D, N34A, I96F
B5: FS301 (antibody, V domains shown)
VH: EVQLLESGGGLVQPGGSLRLSCAASGFTFSNYAIHWVRQAPGKGLEWVSSIIPISGTANYAQKFQGRFTISRDNSKNTLYLQMNSLRAEDTAVYYCSRGGYGFDYWGQGTLVTVSS
VL: B3 VL with Q24R, D28S, N31T, Y32F, S52T, S91A, Y92N, T94F, I96L
B6: FS310 (antibody, V domains shown)
VH: EVQLLESGGGLVQPGGSLRLSCAASGFTFSIYGMHWVRQAPGKGLEWVSSIYYSGDTYYNPSLESRFTISRDNSKNTLYLQMNSLRAEDTAVYYCARDIGSSWGFDYWGQGTLVTVSS
VL: QSVLTQPPSASGTPGQRVTISCTAAASDIASNYVQWYQQLPGTAPKLLIYEDTKRPSGVPYRFSGSKSGTSASLAISGLRSEDEADYYCATWDDSLRGWVFGGGTKLTVL
B7: FS313 (antibody, V domains shown)
VH: EVQLLESGGGLVQPGGSLRLSCAASGFTFSGYAMSWVRQAPGKGLEWVSGINWRGATTAYADSLKGRFTISRDNSKNTLYLQMNSLRAEDTAVYYCARSDYGLFDIWGQGTLVTVSS
VL: QSVLTQPPSASGAPGQRVTISCGGNNIGSKSVHWYQQLPGTAPKLLIYQDTKRPSGVPNRFSGSKSGTSASLAISGLRSEDEADYYCQSYDSRQLVFGGGTKLTVL
notes: also called FS313 IgG
B8: FS314 (antibody, V domains shown)
VH: EVQLLESGGGLVQPGGSLRLSCAASGFTFSNYPMSWVRQAPGKGLEWVSSVSGSGTSTYYADSVKGRFTISRDNSKNTLHLQMNSLRAEDTAVYYCARHTQRWGAFDPWGQGTLVTVSS
VL: QSVLTQPPSASGTPGQRVTISCGGDNIGTKSVHWYQQLPGTAPKLLIYGNSNRPSGVPNRFSGSKSGTSASLAISGLRSEDEADYYCQSYDSSLSGYVFGGGTKLTVL
B9: F303 (antibody, V domains shown)
VH: EVQLLESGGGLVQPGGSLRLSCAASGFTFSSYYMSWVRQAPGKGLEWVSAISPGSSNKYYADSVKGRFTISRDNSKNTLYLQMNSLRAEDTAVYYCAKDWSKFDYWGQGTLVTVSS
VL: QSVLTQPPSASGTPGQRVTISCSGSSSNIGSNDVTWYQQLPGTAPKLLIYDDNHRPSGVPDRFSGSKSGTSASLAISGLRSEDEADYYCGTWDASLSAYVFGGGTKLTVL
B10: F311 (antibody, V domains shown)
VH: EVQLLESGGGLVQPGGSLRLSCAASGFTFSDYDMSWVRQAPGKGLEWVSAISSSDGSTYYADSVKGRFTISRDNSKNTLYLQMNSLRAEDTAVYYCAKHLPNFDYWGQGTLVTVSS
VL: B9 VL with P7L, S23T, S31N, D33T, T35S, D51Y, N53S, A94D, S97N, A98G
B11: F308 (antibody, V domains shown)
VH: B9 VH with S31N, A50G, S56G, N57S, K58I, S101T, K102R
VL: B9 VL with S23T, S31N, D33A, T35S, N53S, H54K, T91A, A94Y
B12: F304 (antibody, V domains shown)
VH: EVQLLESGGGLVQPGGSLRLSCAASGFTFSDYYMSWVRLAPGKGLEWVSAIYHGDGSTYYADSVKGRFTISRDNSKNTLYLQMNSLRAEDTAVYYCARDSRLCQTSGCYSDDAMDVWGQGTLVTVSS
VL: B9 VL with S23T, S31N, D33Y, T35S, D51Y, D52N, N53S, G90A, A94D, A98G
B13: F310 (antibody, V domains shown)
VH: EVQLLESGGGLVQPGGSLRLSCAASGFTFSNYYMSWVRQAPGKGLEWVSGIYYGSGNIYYADSVKGRFTISRDNSKNTLYLQMNSLRAEDTAVYYCARGGGGFDYWGQGTLVTVSS
VL: B9 VL with S31N, T35Y, D51A, T91A, S97N, A98G
B14: F309#SSM026 (antibody, V domains shown)
VH: EVQLLESGGGLVQPGGSLRLSCAASGFTFSSYDMSWVRQAPGKGLEWVSGIYSGDGSIYYADSVKGRFTISRDNSKNTLYLQMNSLRAEDTAVYYCAKDGPTNEESRFDYWGQGTLVTVSS
VL: B9 VL with S31N, D33Y, T35S, D51A, N53S, H54K, G90A, T91S, A94Y, A98G
B15: F309#SSM036 (antibody, V domains shown)
VH: B14 VH with G100A, T102M
VL: B9 VL with S31N, D33Y, T35S, D51A, N53S, H54K, G90A, T91S, A94Y, A98G
B16: F309#SSM034 (antibody, V domains shown)
VH: B14 VH with G100A, T102M, E105I
VL: B9 VL with S31N, D33Y, T35S, D51A, N53S, H54K, G90A, T91S, A94Y, A98G
notes: Combination variant of F309; also called #SSM34
B17: F309#SSM234 (antibody, V domains shown)
VH: B14 VH with T102M, E105I
VL: B9 VL with S31N, D33Y, T35S, D51A, N53S, H54K, G90A, T91S, A94Y, A98G
notes: Combination variant of F309
B18: F309#SSM023 (antibody, V domains shown)
VH: B14 VH with T102M, E105M
VL: B9 VL with S31N, D33Y, T35S, D51A, N53S, H54K, G90A, T91S, A94Y, A98G
notes: Combination variant of F309; also called #SSM23
B19: F309#SSM024 (antibody, V domains shown)
VH: B14 VH with E105I
VL: B9 VL with S31N, D33Y, T35S, D51A, N53S, H54K, G90A, T91S, A94Y, A98G
notes: Combination variant of F309; also called #SSM24
B20: F309#SSM009 (antibody, V domains shown)
VH: B14 VH with G100A, E105M
VL: QSVLTQPPSASGTPGQRVTISCSGSSSNIGNNYVSWYQQLPGTAPKLLIYADSKRPSGVPDRFSGSKSGTSASLAISGLRSEDEADYYCASWDYSLDGYVFGGGTKLTVL
B21: F309#SSM004 (antibody, V domains shown)
VH: B14 VH with G100A, E105I
VL: B20 VL with D97S
B22: F309#SSM006 (antibody, V domains shown)
VH: B14 VH with G100A
VL: B20 VL with D97S
B23: F309#SSM002 (antibody, V domains shown)
VH: B14 VH with E105M
VL: B20 VL with D97S
B24: F309#SSM008 (antibody, V domains shown)
VH: B14 VH with G100A, E105M
VL: B20 VL with D97T
B25: F309#SSM005 (antibody, V domains shown)
VH: B14 VH with G100A, E105P
VL: B20 VL with D97S
B26: F309#SSM001 (antibody, V domains shown)
VH: B14 VH with G100Y, E105M
VL: B20 VL with D97S
B27: F309#SSM010 (antibody, V domains shown)
VH: B14 VH with G100A, E105M
VL: B20 VL with D97E
B28: F309#SSM007 (antibody, V domains shown)
VH: B14 VH with G100A, E105M
VL: B20 VL with S91V, D97S
B29: F309#SSM003 (antibody, V domains shown)
VH: B14 VH with G100A, T102M, E105M
VL: B20 VL with D97S

Target: FGFR3(-TACC3) on FGFR3-TACC3 overexpressing brain tumor patient-derived cells (GBM15-682T) (human (brain tumor patient-derived cells)) (UniProt P22607)
Assay: FACS, cell surface binding on FGFR3(-TACC3) overexpressing brain tumor patient-derived cells

Row | binding | Binder
1 | binds | B1
2 | binds | B2
3 | binds | B3
4 | binds | B4
5 | binds | B5
6 | binds | B6
7 | binds | B7
8 | binds | B8
9 | binds | B9
10 | binds | B10
11 | binds | B11
12 | binds | B12
13 | binds | B13

Target: FGFR3 recombinant protein (isoform not given) (Homo sapiens (Human)) (UniProt P22607)
Assay: ELISA

Row | binding | Binder
14 | binds | B14
15 | binds | B15
16 | binds | B16
17 | binds | B17
18 | binds | B18
19 | binds | B19

Target: FGFR3 recombinant protein (isoform not given) (Homo sapiens (Human)) (UniProt P22607)
Assay: affinity ELISA

Row | binding | Binder
20 | binds | B20
21 | binds | B21
22 | binds | B22
23 | binds | B23
24 | binds | B24
25 | binds | B25
26 | binds | B26
27 | binds | B27
28 | binds | B28
29 | binds | B29
